Measurements reported in patent US6475781.
No constants are given. Whether binding was seen depends on the method and setting. Some binding calls cover weakened binding; strength is not graded here.

The chains behind the UniProt entries cited, without tags or fusion partners. Residues count along the entry.
UniProt P01127, residues 82-190: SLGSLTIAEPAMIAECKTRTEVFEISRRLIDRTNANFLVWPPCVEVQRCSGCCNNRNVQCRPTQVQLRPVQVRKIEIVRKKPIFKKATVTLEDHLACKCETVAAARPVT

Molecular target: human PDGF-B (c-sis) (human) (UniProt P01127)
Assay: immunoprecipitation of cell lysate of c-sis transformed Balb/c 3T3 cells, non-reducing SDS-PAGE

binding: binds
Substance: human PDGF-B (c-sis) (from UniProt P01127 82-190) (ligand)
